Measurements reported in PubChem BioAssay AID1259308 (NCATS, 2017)
Test: 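Genes whose loss raises luciferase production in HEK293 cells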 (primary screen). System: human HEK293 embryonic kidney cells stably expressing firefly luciferase (HEK-CMV-Luc2-Hygro). Reagent: single siRNA against human genes, 0.8 pmol siRNA per well. Time to read-out: 72 h. Detection: 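Luciferase light (ONE-Glo) measured on one replicate plate set and viability (CellTiter-Glo) on the other, scaled to a negative control siRNA, with robust z-scores and luciferase per cell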. Scale: total luciferase, z-score: higher = more reporter protein produced. Rule for the call: 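Active when the median/MAD z-score for overall luciferase is greater than 3; a gene was taken forward for validation with new siRNAs if at least two of its three siRNAs passed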. Meaning of the calls: active = raised luciferase; inactive = no rise.
Here is one part, drawn at random, of about 59,000 reagents. About 1,510 of all reagents (2.6%) were called active. 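Calls use total luciferase alone and ignore viability, so some active siRNAs may act by altering cell number.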 A number with no mark means an inactive call. Reagents against one gene are numbered here. Not all columns of the deposit are shown. No sequences are given here.

TLR4 #1 — total luciferase, z-score: 0.579
TLR4 #2 — total luciferase, z-score: 0.684
TLR4 #3 — total luciferase, z-score: 0.358
FOXA1 #1 — total luciferase, z-score: 0.354
FOXA1 #2 — total luciferase, z-score: -1.48
FOXA1 #3 — total luciferase, z-score: -0.154
NPY4R #1 — total luciferase, z-score: 1.71
NPY4R #2 — total luciferase, z-score: 1.29
NPY4R #3 — total luciferase, z-score: -1.13
RANBP6 #1 — total luciferase, z-score: -0.0528
RANBP6 #2 — total luciferase, z-score: 0.377
RANBP6 #3 — total luciferase, z-score: -1.13
PALMD #1 — total luciferase, z-score: 0.0473
PALMD #2 — total luciferase, z-score: -2.44
PALMD #3 — total luciferase, z-score: 0.21
SPIRE1 #1 — total luciferase, z-score: 3.23 (active)
SPIRE1 #2 — total luciferase, z-score: 0.164
SPIRE1 #3 — total luciferase, z-score: 0.162

Continued, starting with the last 4 of the part before.
PALMD #3 — total luciferase, z-score: 0.21
SPIRE1 #1 — total luciferase, z-score: 3.23 (active)
SPIRE1 #2 — total luciferase, z-score: 0.164
SPIRE1 #3 — total luciferase, z-score: 0.162
SIN3B #1 — total luciferase, z-score: -0.731
SIN3B #2 — total luciferase, z-score: -1.07
SIN3B #3 — total luciferase, z-score: -0.562
GET4 #1 — total luciferase, z-score: 0.864
GET4 #2 — total luciferase, z-score: -0.111
GET4 #3 — total luciferase, z-score: 0.315
DHX32 #1 — total luciferase, z-score: 1.59
DHX32 #2 — total luciferase, z-score: 0.377
DHX32 #3 — total luciferase, z-score: 0.367
ADAM28 #1 — total luciferase, z-score: -0.331
ADAM28 #2 — total luciferase, z-score: -0.124
ADAM28 #3 — total luciferase, z-score: 1.01
USP18 #1 — total luciferase, z-score: 1.03
USP18 #2 — total luciferase, z-score: 0.57
USP18 #3 — total luciferase, z-score: 0.461
FGF22 #1 — total luciferase, z-score: 2.19
FGF22 #2 — total luciferase, z-score: 0.385
FGF22 #3 — total luciferase, z-score: 0.53
PTPRG #1 — total luciferase, z-score: -0.344
PTPRG #2 — total luciferase, z-score: 0.679
PTPRG #3 — total luciferase, z-score: -0.104
OR4B1 #1 — total luciferase, z-score: 0.34
OR4B1 #2 — total luciferase, z-score: -0.644
OR4B1 #3 — total luciferase, z-score: 0.116
